Source: the supplement of paper PMC8728848
The other results are listed elsewhere or left out.

Legend:
Test in all cases: glycan array binding signal (z-score within array); higher = stronger binding
Conditions in all cases: glycan notation: IUPAC condensed, linker removed
[1] = target: Gal(b1-4)GlcNAc(b1-2)Man(a1-6)[Man(a1-3)]Man(b1-4)GlcNAc(b1-4)GlcNAc
Outline: (§1)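 The binding signal is a Z-score computed within each array and averaged over linkers. Arrays of the same protein sequence at different concentrations or buffers were also averaged together. Data originate from 3228 arrays in the Consortium for Functional Glycomics database, kept only where the protein sequence was available.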

[2] = target: Gal(b1-4)GlcNAc(b1-2)[Gal(b1-4)GlcNAc(b1-4)]Man(a1-3)[Gal(b1-4)GlcNAc(b1-2)Man(a1-6)]Man(b1-4)GlcNAc(b1-4)GlcNAc
Outline: as §1

[3] = target: Gal(b1-4)GlcNAc(b1-2)[Gal(b1-4)GlcNAc(b1-4)]Man(a1-3)[Gal(b1-4)GlcNAc(b1-2)[Gal(b1-4)GlcNAc(b1-6)]Man(a1-6)]Man(b1-4)GlcNAc(b1-4)GlcNAc
Outline: as §1

[4] = target: Gal(b1-4)GlcNAc(b1-2)[Gal(b1-4)GlcNAc(b1-4)]Man(a1-3)[GlcNAc(b1-4)][Gal(b1-4)GlcNAc(b1-2)Man(a1-6)]Man(b1-4)GlcNAc(b1-4)GlcNAc
Outline: as §1

[5] = target: Gal(b1-4)GlcNAc(b1-2)[Gal(b1-4)GlcNAc(b1-4)]Man(a1-3)[GlcNAc(b1-4)][Gal(b1-4)GlcNAc(b1-2)[Gal(b1-4)GlcNAc(b1-6)]Man(a1-6)]Man(b1-4)GlcNAc(b1-4)GlcNAc
Outline: as §1

[6] = target: Gal(b1-4)GlcNAc(b1-2)[Gal(b1-4)GlcNAc(b1-6)]Man(a1-6)[Gal(b1-4)GlcNAc(b1-2)Man(a1-3)]Man(b1-4)GlcNAc(b1-4)GlcNAc
Outline: as §1

[7] = target: Gal(b1-4)GlcNAc(b1-2)[Gal(b1-4)GlcNAc(b1-6)]Man(a1-6)[Gal(b1-4)GlcNAc(b1-2)Man(a1-3)]Man(b1-4)GlcNAc(b1-4)[Fuc(a1-6)]GlcNAc
Outline: as §1

[8] = target: Gal(b1-4)GlcNAc(b1-2)[Gal(b1-4)GlcNAc(b1-6)]Man(a1-6)[GlcNAc(b1-4)][Gal(b1-4)GlcNAc(b1-2)Man(a1-3)]Man(b1-4)GlcNAc(b1-4)GlcNAc
Outline: as §1

[9] = target: Gal(b1-4)GlcNAc(b1-2)[Gal(b1-4)GlcNAc(b1-6)]Man(a1-6)[GlcNAc(b1-4)][Gal(b1-4)GlcNAc(b1-2)[Gal(b1-4)GlcNAc(b1-4)]Man(a1-3)]Man(b1-4)GlcNAc(b1-4)[Fuc(a1-6)]GlcNAc
Outline: as §1

[10] = target: Gal(b1-4)GlcNAc(b1-3)Gal(b1-3)GalNAc
Outline: as §1

[11] = target: Gal(b1-4)GlcNAc(b1-3)Gal(b1-3)GlcNAc
Outline: as §1

[12] = target: Gal(b1-4)GlcNAc(b1-3)Gal(b1-4)Glc
Outline: as §1

[13] = target: Gal(b1-4)GlcNAc(b1-3)Gal(b1-4)GlcNAc
Outline: as §1

[14] = target: Gal(b1-4)GlcNAc(b1-3)Gal(b1-4)GlcNAc(b1-2)Man(a1-3)[Gal(b1-4)GlcNAc(b1-3)Gal(b1-4)GlcNAc(b1-2)Man(a1-6)]Man(b1-4)GlcNAc(b1-4)GlcNAc
Outline: as §1

[15] = target: Gal(b1-4)GlcNAc(b1-3)Gal(b1-4)GlcNAc(b1-2)Man(a1-3)[Gal(b1-4)GlcNAc(b1-3)Gal(b1-4)GlcNAc(b1-2)Man(a1-6)]Man(b1-4)GlcNAc(b1-4)[Fuc(a1-6)]GlcNAc
Outline: as §1

[16] = target: Gal(b1-4)GlcNAc(b1-3)Gal(b1-4)GlcNAc(b1-2)[Gal(b1-4)GlcNAc(b1-3)Gal(b1-4)GlcNAc(b1-6)]Man(a1-6)[Gal(b1-4)GlcNAc(b1-3)Gal(b1-4)GlcNAc(b1-2)Man(a1-3)]Man(b1-4)GlcNAc(b1-4)GlcNAc
Outline: as §1

[17] = target: Gal(b1-4)GlcNAc(b1-3)Gal(b1-4)GlcNAc(b1-2)[Gal(b1-4)GlcNAc(b1-3)Gal(b1-4)GlcNAc(b1-6)]Man(a1-6)[Gal(b1-4)GlcNAc(b1-3)Gal(b1-4)GlcNAc(b1-2)Man(a1-3)]Man(b1-4)GlcNAc(b1-4)[Fuc(a1-6)]GlcNAc
Outline: as §1

[18] = target: Gal(b1-4)GlcNAc(b1-3)Gal(b1-4)GlcNAc(b1-3)Gal(b1-4)GlcNAc
Outline: as §1

[19] = target: Gal(b1-4)GlcNAc(b1-3)Gal(b1-4)GlcNAc(b1-3)Gal(b1-4)GlcNAc(b1-2)Man(a1-3)[Gal(b1-4)GlcNAc(b1-3)Gal(b1-4)GlcNAc(b1-3)Gal(b1-4)GlcNAc(b1-2)Man(a1-6)]Man(b1-4)GlcNAc(b1-4)GlcNAc
Outline: as §1

[20] = target: Gal(b1-4)GlcNAc(b1-3)Gal(b1-4)GlcNAc(b1-3)Gal(b1-4)GlcNAc(b1-2)Man(a1-3)[Gal(b1-4)GlcNAc(b1-3)Gal(b1-4)GlcNAc(b1-3)Gal(b1-4)GlcNAc(b1-2)Man(a1-6)]Man(b1-4)GlcNAc(b1-4)[Fuc(a1-6)]GlcNAc
Outline: as §1

[21] = target: Gal(b1-4)GlcNAc(b1-3)Gal(b1-4)GlcNAc(b1-3)Gal(b1-4)GlcNAc(b1-2)[Gal(b1-4)GlcNAc(b1-3)Gal(b1-4)GlcNAc(b1-3)Gal(b1-4)GlcNAc(b1-6)]Man(a1-6)[Gal(b1-4)GlcNAc(b1-3)Gal(b1-4)GlcNAc(b1-3)Gal(b1-4)GlcNAc(b1-2)Man(a1-3)]Man(b1-4)GlcNAc(b1-4)[Fuc(a1-6)]GlcNAc
Outline: as §1

[22] = target: Gal(b1-4)GlcNAc(b1-3)Gal(b1-4)GlcNAc(b1-3)Gal(b1-4)GlcNAc(b1-3)Gal(b1-4)GlcNAc(b1-2)Man(a1-3)[Gal(b1-4)GlcNAc(b1-3)Gal(b1-4)GlcNAc(b1-3)Gal(b1-4)GlcNAc(b1-3)Gal(b1-4)GlcNAc(b1-2)Man(a1-6)]Man(b1-4)GlcNAc(b1-4)GlcNAc
Outline: as §1

B1: Lb MiSSP8 (Laccaria bicolor) (protein)
chain: MYFHTLFACATLMLITTAHASPTVINSLDSRKADLNGDVEARHAADWRRDSDWRRDSDWRRDSDWRRDSD
glycan array binding signal (z-score) [1]: -0.737
glycan array binding signal (z-score) [2]: -0.102
glycan array binding signal (z-score) [3]: -0.771
glycan array binding signal (z-score) [4]: -0.274
glycan array binding signal (z-score) [5]: -0.813
glycan array binding signal (z-score) [6]: -0.392
glycan array binding signal (z-score) [7]: 0.243
glycan array binding signal (z-score) [8]: -0.571
glycan array binding signal (z-score) [9]: 0.036
glycan array binding signal (z-score) [10]: -1.19
glycan array binding signal (z-score) [11]: 0.292
glycan array binding signal (z-score) [12]: 2.29
glycan array binding signal (z-score) [13]: -1.01
glycan array binding signal (z-score) [14]: 1.96
glycan array binding signal (z-score) [15]: 0.133
glycan array binding signal (z-score) [16]: 2.86
glycan array binding signal (z-score) [17]: 0.637
glycan array binding signal (z-score) [18]: -0.82
glycan array binding signal (z-score) [19]: 1.53
glycan array binding signal (z-score) [20]: 0.589
glycan array binding signal (z-score) [21]: 1.1
glycan array binding signal (z-score) [22]: 0.602
